The subject of this assay is hAd4 viral particles. The following applies: hAd4 particle suspension treated 1 h at room temperature; CPC 0,05% in PBS or SinoFresh; FIG. 4. As to the method: A suspension of hAd4 viral particles was treated with PBS, CPC 0,05% in PBS or SinoFresh™ for 1 h at room temperature. Shown there is the electron microscopy of hAd4 viral particles treated with PBS, CPC 0.05% in PBS or SinoFresh® product for 1 h at room temperature.

Take `CCCCCCCCCCCCCCCC[n+]1ccccc1` [CPC, 1-hexa-decyl pyridinium chloride]: the “disruption of viral particles (electron microscopy)” value is “total disruption of viral particles”.
